According to PubChem BioAssay AID2685 (National Center for Advancing Translational Sciences (NCATS), 2010):
Screen size: about 320,000 compounds; about 2,100 (0.66%) were called active. This list was built around the results that the source calls inconclusive (neither active nor inactive); the mix of calls is not that of the screen. The call rests on the fitted dose curve; in most records, active means well fitted inhibition curve with a large enough effect in the signal ratio, with a control signal flat (not every such curve was filed as active); inconclusive means small, poorly fitted or top-dose-only effect, or effect the other way, or a change in a side signal; inactive means flat fitted curve, though single readings scatter; the % refers to the signal ratio. Where the call is inconclusive, the potency comes from a doubtful curve fit.
On the % scale 0 is the no-effect control and ±100 the full control effect; potency means the concentration at half of the fitted maximal effect.

Test: qHTS Assay for Lipid Storage Modulators in Drosophila S3 Cells
Settings: BODIPY lipid droplet fluorescence, 18-24 h, cells fed with added oleic acid; lipid storage change, negative = inhibition: at 46.1 µM (top of the series) unless noted
In short: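 Laser-scanning cytometry quantifies lipid droplet accumulation (500–530 nm total intensity; droplet/cell object ratio) in oleic acid-fed (400 uM added) Drosophila S3 cells treated with a concentration series. 20 uM Triacsin C defined 100% inhibition.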
For `CCOC(=O)C1=C(COc2ccccc2)NC(=O)NC1c1ccc(Br)cc1` (centres undefined), the lipid storage change, negative = inhibition was inconclusive: -60.7%.
For `CCc1noc(C)c1C(=O)NNC(=O)c1ccccc1Cl`, the lipid storage change, negative = inhibition was inconclusive: -2.6%.
In the case of `CCN(CC)CCCn1c2c(c(SCC(=O)Nc3ccccc3Cl)nc1=O)CCC2`, the Potency is reported as inconclusive: 2910 nM [rising, single point].
With `CNC(=S)N1CCn2cccc2C1c1ccc(F)cc1` (centres undefined) the lipid storage change, negative = inhibition was inconclusive: 13.4% [at 9.22 µM].
For `Cc1cc(C)n2cc(CSc3ncn[nH]3)nc2n1`, the lipid storage change, negative = inhibition was inconclusive: -12.6%.
With `Cc1nc2c(sc(=S)n2Cc2ccco2)c(=O)n1CC(=O)Nc1ccccc1Cl` the lipid storage change, negative = inhibition was “inactive”.
With `CCCC(c1nnnn1C(C)(C)C)N1CCN(c2ccccc2)CC1` (centres undefined) the lipid storage change, negative = inhibition was inconclusive: 23.9%.
For `CCOc1cc(/C=C/c2cc(C(=O)O)c3ccccc3n2)ccc1O`, the Potency was inconclusive: 6510 nM [activator, single point].
With `Cc1cc(Br)ccc1OCC(=O)NNC(=O)c1cnccn1` the lipid storage change, negative = inhibition was inconclusive: 19.8%.
For `Cc1onc(-c2c(F)cccc2Cl)c1C(=O)NCc1ccco1`, the lipid storage change, negative = inhibition was inconclusive: 15.5%.
In the case of `COc1ccc(/C=C(/CC(=O)NCc2ccc(Cl)cc2)c2nc3ccccc3s2)cc1`, the lipid storage change, negative = inhibition is reported as inconclusive: -5.04%.
For `CC(C)(C)c1ccc(-c2nnc3sc(-c4ccccn4)nn23)cc1`, the lipid storage change, negative = inhibition was inconclusive: 62.2% [activator].
In the case of `CC1CCCCC1NC(=O)C1CC=CCC1C(=O)O` (centres undefined), the lipid storage change, negative = inhibition is reported as inconclusive: -133%.
With `Cc1[nH]n(C(N)=S)c(=O)c1N=Nc1ccc(S(=O)(=O)N2CCCCCC2)cc1` the Potency was inconclusive: 651 nM [activator, full curve, poor fit].
For `CCOc1ccccc1NC(=S)N1CCN(c2ccccc2F)CC1`, the lipid storage change, negative = inhibition was inconclusive: 34%.
For `COc1cc2cnncc2cc1OC`, the lipid storage change, negative = inhibition was inconclusive: 5.39%.
In the case of `N#CC(C#N)=Cc1cc2ccccc2nc1N1CCOCC1`, the lipid storage change, negative = inhibition is reported as inconclusive: -28.5%.
With `O=C(Nc1ccc(Br)cc1)c1cccc(OC(=S)N2CCOCC2)c1` the Potency was inconclusive: 6510 nM [activator, single point].
For `O=C(NCC1OCCc2ccccc21)c1ccc(NC(=O)c2cccc(Br)c2)cc1` (centres undefined), the lipid storage change, negative = inhibition was inconclusive: -4.27%.
With `CCN(CC)S(=O)(=O)c1cccc(NC(=O)C2SC(=Nc3ccc(C)cc3C)C(C(=O)NC(C)COC)=C2N)c1` (centres undefined) the lipid storage change, negative = inhibition was inconclusive: 207%.
In the case of `COc1cc2c3c(c1)c(C1=NC(=S)NC1=O)c(O)n3C(C)(C)C=C2C`, the lipid storage change, negative = inhibition is reported as inconclusive: -6.89%.
In the case of `Cc1ccc(O)c(C(=O)c2cnn(C(=O)Cc3csc(C)n3)c2)c1`, the lipid storage change, negative = inhibition is reported as inconclusive: -4.34% [at 9.22 µM].
For `CCCCn1c(N)c(N(CCOC)C(=O)COC(=O)COc2ccccc2C#N)c(=O)[nH]c1=O`, the lipid storage change, negative = inhibition was inconclusive: -12.2%.
With `COc1ccc(C(=O)NC(=S)NCCO)cc1Br` the lipid storage change, negative = inhibition was inconclusive: -56.6%.
For `COc1ccc(CNC(=O)C2CCCN(S(=O)(=O)c3c(C)nn(C)c3C)C2)cc1` (centres undefined), the lipid storage change, negative = inhibition was inconclusive: 9.13%.
In the case of `O=C(O)c1ccc(-c2ccc(/C=N/Nc3ccc([N+](=O)[O-])cc3)o2)cc1`, the lipid storage change, negative = inhibition is reported as inconclusive: -39.4%.
With `O=C(Nc1ccc(S(=O)(=O)NCc2cccnc2)cc1)c1ccccc1Cl` the Potency was inconclusive: 18400 nM [falling, single point].
In the case of `O=C(N[C@@H](Cc1ccc(Br)cc1)C(=O)O)OCC1c2ccccc2-c2ccccc21`, the lipid storage change, negative = inhibition is reported as inconclusive: 39.5%.
In the case of `O=C(/C=C/c1c(F)cccc1Cl)NCc1ccco1`, the lipid storage change, negative = inhibition is reported as inconclusive: 24.4%.
For `COc1ccc(/C=C/C(=O)c2ccc3c(c2)OCO3)cc1OC`, the lipid storage change, negative = inhibition was inconclusive: 32.4%.
In the case of `C=CCn1c(C)cc(C(=O)CSc2nc3ccccc3[nH]2)c1C`, the Potency is reported as inconclusive: 2060 nM [activator, full curve].
In the case of `Cc1ccc2[nH]c(=O)c(CN(CCCN3CCOCC3)C(=O)NC3CCCCC3)cc2c1`, the lipid storage change, negative = inhibition is reported as inconclusive: 34.1%.
In the case of `COc1cc(OC)c(/C=N/n2c(C)nnc2C)c(OC)c1`, the lipid storage change, negative = inhibition is reported as inconclusive: 21.5%.
In the case of `COc1ccc(Cn2c(C)ccc2C)cc1`, the Potency is reported as inconclusive: 184 nM [activator, full curve, poor fit].
For `CC1CN(C(=O)/C(C#N)=C2\N=C(NC(=O)c3ccccc3Cl)c3ccccc32)CC(C)O1` (centres undefined), the lipid storage change, negative = inhibition was inconclusive: 11.3%.
With `Cn1c(=O)[nH]c(=O)c2c1nc(CN1CCN(c3ccc(F)cc3)CC1)n2CCc1ccccc1` the lipid storage change, negative = inhibition was inconclusive: 11.9%.
For `CCN(CC)C(=O)c1cccc(NC(=O)CC23CC4CC(CC(C4)C2)C3)c1`, the Potency was active: 231 nM.
With `NS(=O)(=O)c1ccc(CNC(=O)c2scc3c2CCCC3)cc1` the lipid storage change, negative = inhibition was inconclusive: -27.5%.
For `CCCS(=O)(=O)N1CCN(c2ccccc2F)CC1`, the Potency was inconclusive: 580 nM [falling, single point].
With `CC(C)N(Cc1nc(-c2ccccc2)no1)C(=O)c1ccc(Br)o1` the Potency was inconclusive: 2310 nM [activator, partial curve].
In the case of `Cc1c(OCC(=O)N(C)C)ccc2c3c(c(=O)oc12)CCCCC3`, the Potency is reported as inconclusive: 29100 nM [rising, single point].
With `O=C(Nc1ccc2c(c1)OCO2)c1ccccc1SCC(=O)N1CCCC1` the lipid storage change, negative = inhibition was inconclusive: 33.7%.
With `COc1ccc(NC(=O)c2[nH]ncc2[N+](=O)[O-])cc1` the lipid storage change, negative = inhibition was inconclusive: 4.37%.
In the case of `CC(C)N(CCCNC(=O)C1CCN(C(=O)c2cc3sccc3n2C)CC1)Cc1ccccc1`, the Potency is reported as inconclusive: 29100 nM [activator, single point].
With `O=c1cc[nH]c(=O)[nH]1` the lipid storage change, negative = inhibition was inconclusive: -5.79%.
In the case of `O=C(Nc1ccc(S(=O)(=O)N2CCCCC2)cc1)c1ccc(CN2CCOCC2)cc1`, the Potency is reported as inconclusive: 16400 nM [falling, single point].
For `O=C(CC(=O)c1ccccc1)Nc1ccc2c(c1)OCCO2`, the lipid storage change, negative = inhibition was inconclusive: -1.73%.
For `Cn1ccnc1SCC(=O)Nc1cc(S(=O)(=O)N2CCOCC2)ccc1Cl`, the Potency was inconclusive: 206 nM [activator, full curve].
In the case of `Cc1ccc(S(=O)(=O)Nc2cc(C(C(=O)OC(C)C)C(=O)C(F)(F)F)c(O)c3ccccc23)c(C)c1` (centres undefined), the Potency is reported as inconclusive: 32600 nM [falling, single point].
